From article PMC5577270
No constants are given. Whether binding was seen depends on the method and setting. In cells and extracts the contact can be indirect. Some entries that bind do so weakly or less than the wild type.

By UniProt entry, the sequences of proteins in these tests, tags left out.
UniProt P35372: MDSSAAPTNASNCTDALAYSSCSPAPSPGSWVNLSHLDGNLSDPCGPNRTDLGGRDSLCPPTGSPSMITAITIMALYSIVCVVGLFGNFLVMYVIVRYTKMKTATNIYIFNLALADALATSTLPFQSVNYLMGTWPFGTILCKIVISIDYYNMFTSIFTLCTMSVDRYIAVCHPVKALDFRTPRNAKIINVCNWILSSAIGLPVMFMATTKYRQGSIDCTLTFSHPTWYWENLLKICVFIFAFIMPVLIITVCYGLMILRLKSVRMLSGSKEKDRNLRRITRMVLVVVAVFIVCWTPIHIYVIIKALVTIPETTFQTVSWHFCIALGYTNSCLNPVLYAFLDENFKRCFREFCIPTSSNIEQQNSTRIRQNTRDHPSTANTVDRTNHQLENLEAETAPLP
UniProt P32121: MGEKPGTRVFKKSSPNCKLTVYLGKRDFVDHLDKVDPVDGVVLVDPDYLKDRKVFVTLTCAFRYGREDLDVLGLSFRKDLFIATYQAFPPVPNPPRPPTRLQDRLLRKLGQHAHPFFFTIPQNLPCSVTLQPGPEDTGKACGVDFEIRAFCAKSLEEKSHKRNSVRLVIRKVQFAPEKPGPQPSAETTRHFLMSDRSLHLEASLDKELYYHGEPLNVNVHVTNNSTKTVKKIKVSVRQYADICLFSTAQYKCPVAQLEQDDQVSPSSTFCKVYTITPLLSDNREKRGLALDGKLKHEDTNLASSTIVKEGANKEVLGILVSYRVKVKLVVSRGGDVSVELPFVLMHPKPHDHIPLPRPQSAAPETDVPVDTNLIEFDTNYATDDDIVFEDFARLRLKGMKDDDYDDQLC

Target: mu opioid receptor (UniProt P35372)
Assay: split reporter; PathHunter protein complementation assay in cells expressing recombinant MOP, with or without simultaneous expression of DOP; cells treated with DAMGO or morphine, or without agonist

- binding: binds
Substance: β-arrestin2 (from UniProt P32121 1-409)
